Results are given in words; binding and its absence hold for the method and conditions named. Binding seen in cells or lysates may run through a third protein. Some entries that bind do so weakly or less than the wild type.
Target: Histone deacetylase 5 (mouse (endogenous in visual cortex)) (UniProt Q9Z2V6)
Assay: co-IP; lysates of pooled visual cortex (four pairs, pups of the same dam; mice perfused as for Golgi-Cox staining; SC and EE rearing) in Pierce IP Lysis buffer, incubated with HDAC5 antibody overnight at 4°C, magnetic beads; immunoblot with anti-HDAC5 or anti-MEF2C

Protein sequences, listed by entry. Tags and fused reporters are not part of them.
UniProt Q9Z2V6: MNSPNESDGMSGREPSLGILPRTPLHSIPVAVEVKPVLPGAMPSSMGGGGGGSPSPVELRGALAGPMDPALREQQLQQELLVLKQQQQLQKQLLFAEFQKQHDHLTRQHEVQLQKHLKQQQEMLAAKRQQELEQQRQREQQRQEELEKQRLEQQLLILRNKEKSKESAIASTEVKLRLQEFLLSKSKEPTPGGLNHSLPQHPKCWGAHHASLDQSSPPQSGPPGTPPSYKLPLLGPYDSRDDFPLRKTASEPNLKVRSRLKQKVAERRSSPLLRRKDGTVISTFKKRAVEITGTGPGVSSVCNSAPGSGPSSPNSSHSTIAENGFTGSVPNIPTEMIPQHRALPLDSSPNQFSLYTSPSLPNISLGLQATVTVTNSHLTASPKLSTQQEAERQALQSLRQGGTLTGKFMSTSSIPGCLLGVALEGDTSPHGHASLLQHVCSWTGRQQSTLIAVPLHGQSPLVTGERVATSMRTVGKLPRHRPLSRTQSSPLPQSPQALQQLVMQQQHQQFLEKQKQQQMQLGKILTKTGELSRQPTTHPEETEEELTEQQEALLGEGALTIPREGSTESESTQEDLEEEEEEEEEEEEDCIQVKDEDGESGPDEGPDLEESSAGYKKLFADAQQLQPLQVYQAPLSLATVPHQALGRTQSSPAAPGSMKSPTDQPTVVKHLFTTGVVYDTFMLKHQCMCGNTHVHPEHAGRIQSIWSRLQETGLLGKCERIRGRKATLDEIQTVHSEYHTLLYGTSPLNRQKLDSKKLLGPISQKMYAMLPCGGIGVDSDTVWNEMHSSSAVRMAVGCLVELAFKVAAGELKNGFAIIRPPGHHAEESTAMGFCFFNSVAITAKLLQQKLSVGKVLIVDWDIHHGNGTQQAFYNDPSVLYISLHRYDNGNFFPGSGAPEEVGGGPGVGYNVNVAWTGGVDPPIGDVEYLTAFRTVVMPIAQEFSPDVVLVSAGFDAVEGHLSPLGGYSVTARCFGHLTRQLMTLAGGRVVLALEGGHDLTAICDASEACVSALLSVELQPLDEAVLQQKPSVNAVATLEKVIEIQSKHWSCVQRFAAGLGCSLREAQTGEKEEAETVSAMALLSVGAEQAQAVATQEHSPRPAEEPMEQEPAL
UniProt Q8CFN5: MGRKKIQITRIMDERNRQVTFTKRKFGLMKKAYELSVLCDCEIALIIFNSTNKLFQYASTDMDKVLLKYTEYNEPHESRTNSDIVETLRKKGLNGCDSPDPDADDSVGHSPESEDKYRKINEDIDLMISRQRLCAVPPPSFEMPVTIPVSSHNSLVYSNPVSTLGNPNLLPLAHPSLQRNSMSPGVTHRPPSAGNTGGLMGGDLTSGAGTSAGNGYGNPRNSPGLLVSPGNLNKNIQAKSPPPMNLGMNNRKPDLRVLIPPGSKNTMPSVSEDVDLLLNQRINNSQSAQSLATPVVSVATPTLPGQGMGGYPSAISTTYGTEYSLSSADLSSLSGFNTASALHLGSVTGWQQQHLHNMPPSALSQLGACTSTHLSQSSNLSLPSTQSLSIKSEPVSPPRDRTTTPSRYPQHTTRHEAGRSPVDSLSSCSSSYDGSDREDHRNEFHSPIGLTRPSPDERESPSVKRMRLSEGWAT

**Q.** Which binding does the source give for “myocyte enhancer-binding factor 2C (from UniProt Q8CFN5 1-474)” here?
**A.** binds

From article PMC7378308
